The record followed here is patent US20170348397A1 (Janssen / Centocor, published 2017).

Amino acid sequences for entries named in this document (tags omitted). Residues count along the entry.
Human serum albumin Domain I (P02768, residues 25-221): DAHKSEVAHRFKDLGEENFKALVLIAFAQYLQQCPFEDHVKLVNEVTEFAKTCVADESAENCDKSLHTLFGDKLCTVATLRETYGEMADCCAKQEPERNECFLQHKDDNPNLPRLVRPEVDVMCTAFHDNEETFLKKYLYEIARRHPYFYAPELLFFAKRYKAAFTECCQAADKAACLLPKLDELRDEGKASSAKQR
Human serum albumin Domain III (P02768, residues 405-609): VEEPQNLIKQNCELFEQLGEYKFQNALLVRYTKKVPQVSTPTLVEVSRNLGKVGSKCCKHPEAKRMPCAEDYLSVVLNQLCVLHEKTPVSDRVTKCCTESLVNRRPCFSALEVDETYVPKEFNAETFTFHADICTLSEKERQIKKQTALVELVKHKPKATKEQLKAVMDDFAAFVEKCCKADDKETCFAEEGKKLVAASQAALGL

These are yes or no findings as the source states them, for the method shown. For part of these data: Binding seen in cells or lysates may run through a third protein. Some entries that bind do so weakly or less than the wild type.

For one assay, the target named is T1, Human Serum Albumin (human, UniProt P02768 25-609).
T1 construct: also called HSA
Nature of the assay: IMAC pull-down of endogenous albumin from normal serum, SDS-PAGE.

Assay [1] has as its target Human serum albumin Domain I (human) (UniProt P02768). Nature of the assay: ELISA, clone lysate on coated HSA domain constructs. For orientation: In an ELISA, binding on a coated surface is turned into a signal by an enzyme label.
The target of assay [2] is Human serum albumin Domain III (human) (UniProt P02768). The description is as above.

B1: ALB18 (designed binder)
chain: LPAPKNLVVSEVTEDSARLSWTAPDAAFDSFLIQYQESEKVGEAIVLTVPGSERSYDLTGLKPGTEYTVSIYGVKGGHRSNPLSAIFTTGGGGSGGGGSGGGGSGGGGSLPAPKNLVVSRVTEDSARLSWTAPDAAFDSFQIEYWEDDVGGEAIVLTVPGSERSYDLTGLKPGTEYDVYILGVKGGWESGPLSAIFTTHHHHHH
For B1, in the assay with Human Serum Albumin, the binding result is reported as “binds”.

B2: ALB33 (designed binder)
chain: LPAPKNLVVSEVTEDSARLSWTAPDAAFDSFLIQYQESEKVGEAIVLTVPGSERSYDLTGLKPGTEYTVSIYGVKGGHRSNPLSAIFTTGGGGSGGGGSGGGGSGGGGSLPAPKNLVVSRVTEDSARLSWTAPDAAFDSFKILYEEYLVFGEAIVLTVPGSERSYDLTGLKPGTEYWVAIWGVKGGQVSGTLSAIFTTHHHHHH
As to B2, the binding result in the assay with Human Serum Albumin is recorded as “binds”.

B3: ALB-E07 (designed binder)
chain: LPAPKNLVVSRVTEDSARLSWTAPDAAFDSFKILYEEYLVFGEAIVLTVPGSERSYDLTGLKPGTEYWVAIWGVKGGQVSGTLSAIFTT
Regarding B3, the binding entry in assay [1] is “binds”.

B4: ALB-E05 (designed binder)
chain: LPAPKNLVVSRVTEDSARLSWTAPDAAFDSFQIEYWEDDVGGEAIVLTVPGSERSYDLTGLKPGTEYDVYILGVKGGWESGPLSAIFTT
Regarding B4, the binding entry in assay [2] is recorded as “binds”.

B5: ALB21 (designed binder)
chain: LPAPKNLVVSRVTEDSARLSWTAPDAAFDSFKILYEEYLVFGEAIVLTVPGSERSYDLTGLKPGTEYWVAIWGVKGGQVSGTLSAIFTTGGGGSGGGGSGGGGSGGGGSLPAPKNLVVSEVTEDSARLSWTAPDAAFDSFLIQYQESEKVGEAIVLTVPGSERSYDLTGLKPGTEYTVSIYGVKGGHRSNPLSAIFTTHHHHHH
As to B5, the binding entry with Human Serum Albumin is “binds”.

B6: ALB30 (designed binder)
chain: LPAPKNLVVSRVTEDSARLSWTAPDAAFDSFQIEYWEDDVGGEAIVLTVPGSERSYDLTGLKPGTEYDVYILGVKGGWESGPLSAIFTTGGGGSGGGGSGGGGSGGGGSLPAPKNLVVSEVTEDSARLSWTAPDAAFDSFLIQYQESEKVGEAIVLTVPGSERSYDLTGLKPGTEYTVSIYGVKGGHRSNPLSAIFTTHHHHHH
On to B6, for which the binding entry in the assay with Human Serum Albumin was “binds”.

B7: ALB35 (designed binder)
chain: LPAPKNLVVSRVTEDSARLSWTAPDAAFDSFHIEYWEQSIVGEAIVLTVPGSERSYDLTGLKPGTEYRVWIYGVKGGNDSWPLSAIFTTGGGGSGGGGSGGGGSGGGGSLPAPKNLVVSEVTEDSARLSWTAPDAAFDSFLIQYQESEKVGEAIVLTVPGSERSYDLTGLKPGTEYTVSIYGVKGGHRSNPLSAIFTTHHHHHH
For the molecule B7, the binding entry with Human Serum Albumin is recorded as “binds”.

B8: ALB34 (designed binder)
chain: LPAPKNLVVSEVTEDSARLSWTAPDAAFDSFLIQYQESEKVGEAIVLTVPGSERSYDLTGLKPGTEYTVSIYGVKGGHRSNPLSAIFTTGGGGSGGGGSGGGGSGGGGSLPAPKNLVVSRVTEDSARLSWTAPDAAFDSFHIEYWEQSIVGEAIVLTVPGSERSYDLTGLKPGTEYRVWIYGVKGGNDSWPLSAIFTTHHHHHH
Take B8: in the assay with Human Serum Albumin, the binding entry is on record as “binds”.

B9: ALB-H9 (designed binder)
chain: LPAPKNLVVSRVTEDSARLSWTAPDAAFDSFHIEYWEQSIVGEAIVLTVPGSERSYDLTGLKPGTEYRVWIYGVKGGNDSWPLSAIFTT
For B9, in assay [2], the binding entry is on record as “binds”.
